Data taken from US20060024658A1, “Composition and methods for evaluating an organism's response to alcohol or stimulants” (priority 1998, published 2006).

Key:
SHSY-5Y cells = assay: Effects of alcohols on gene expression (array hybridization intensity) in SHSY-5Y cells, Study 1; type: cell-based, human; details: 100 mM ethanol
Description: Hybridization strength is given a baseline of 1 and increased intensity is expressed in as a multiple of the baseline, i.e., 2-fold, 3-fold, 4-fold etc.
Column 1 lists the presumed functional class of the gene.
Columns are similar to Table 8.

[1] = test system: human neuroblastoma SH-SY5Y cells; assay: Oligonucleotide array (Affymetrix GeneChip Hu6800) gene expression profile after ethanol
[2] = 72 h, 50, 100 or 150 mM ethanol, >=1.5 fold criterion and filtering

Compound: CCO [ethanol]
- number of genes decreased in expression: Cell Signaling (SHSY-5Y cells; acute, 2 hr): 9
- number of genes decreased in expression: Cell division (SHSY-5Y cells; acute, 2 hr): 0
- number of genes decreased in expression: Cell structure (SHSY-5Y cells; acute, 2 hr): 1
- number of genes decreased in expression: Defense/homeostasis (SHSY-5Y cells; acute, 2 hr): 3
- number of genes decreased in expression: Gene/protein expression (SHSY-5Y cells; acute, 2 hr): 4
- number of genes decreased in expression: Metabolism (SHSY-5Y cells; acute, 2 hr): 3
- number of genes decreased in expression: Totals (SHSY-5Y cells; acute, 2 hr): 23
- number of genes decreased in expression: Unclassified (SHSY-5Y cells; acute, 2 hr): 3
- number of genes increased in expression by 1.5-fold or more: Cell Signaling (SHSY-5Y cells; acute, 2 hr): 9
- number of genes increased in expression by 1.5-fold or more: Cell division (SHSY-5Y cells; acute, 2 hr): 1
- number of genes increased in expression by 1.5-fold or more: Cell structure (SHSY-5Y cells; acute, 2 hr): 0
- number of genes increased in expression by 1.5-fold or more: Gene/protein expression (SHSY-5Y cells; acute, 2 hr): 7
- number of genes increased in expression by 1.5-fold or more: Metabolism (SHSY-5Y cells; acute, 2 hr): 3
- number of genes increased in expression by 1.5-fold or more: Totals (SHSY-5Y cells; acute, 2 hr): 22
- number of genes increased in expression by 1.5-fold or more: Unclassified (SHSY-5Y cells; acute, 2 hr): 1
- number of genes decreased in expression: Cell Signaling (SHSY-5Y cells; chronic, 72 hr): 3
- number of genes decreased in expression: Cell division (SHSY-5Y cells; chronic, 72 hr): 0
- number of genes decreased in expression: Cell structure (SHSY-5Y cells; chronic, 72 hr): 1
- number of genes decreased in expression: Defense/homeostasis (SHSY-5Y cells; chronic, 72 hr): 0
- number of genes decreased in expression: Gene/protein expression (SHSY-5Y cells; chronic, 72 hr): 3
- number of genes decreased in expression: Metabolism (SHSY-5Y cells; chronic, 72 hr): 1
- number of genes decreased in expression: Totals (SHSY-5Y cells; chronic, 72 hr): 9
- number of genes decreased in expression: Unclassified (SHSY-5Y cells; chronic, 72 hr): 1
- number of genes increased in expression: Cell Signaling (SHSY-5Y cells; chronic, 72 hr): 13
- number of genes increased in expression: Cell division (SHSY-5Y cells; chronic, 72 hr): 0
- number of genes increased in expression: Gene/protein expression (SHSY-5Y cells; chronic, 72 hr): 3
- number of genes increased in expression: Metabolism (SHSY-5Y cells; chronic, 72 hr): 3
- number of genes increased in expression: Totals (SHSY-5Y cells; chronic, 72 hr): 22
- number of genes increased in expression: Unclassified (SHSY-5Y cells; chronic, 72 hr): 1
- number of genes down regulated [1, 2]: 18
- number of genes up regulated [1, 2]: 24
- number of genes differentially regulated ([1]; 3 days treatment, 50, 100 or 150 mM ethanol): 42
